{"sequences": {"note": "By UniProt entry, the sequences of proteins in these tests, tags left out.", "UniProt P19793, whole entry": "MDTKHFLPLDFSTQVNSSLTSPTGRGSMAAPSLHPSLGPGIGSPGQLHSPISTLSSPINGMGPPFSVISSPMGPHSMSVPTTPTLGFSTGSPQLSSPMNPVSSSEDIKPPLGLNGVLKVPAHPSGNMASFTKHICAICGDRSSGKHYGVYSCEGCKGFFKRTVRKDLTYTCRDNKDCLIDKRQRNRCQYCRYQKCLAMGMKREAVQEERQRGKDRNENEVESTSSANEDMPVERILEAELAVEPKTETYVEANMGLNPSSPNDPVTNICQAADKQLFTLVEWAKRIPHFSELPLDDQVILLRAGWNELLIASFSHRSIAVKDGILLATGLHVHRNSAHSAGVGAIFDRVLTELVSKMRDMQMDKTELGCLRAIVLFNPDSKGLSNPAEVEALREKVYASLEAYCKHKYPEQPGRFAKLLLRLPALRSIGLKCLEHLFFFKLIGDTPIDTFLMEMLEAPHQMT", "UniProt P28702, whole entry": "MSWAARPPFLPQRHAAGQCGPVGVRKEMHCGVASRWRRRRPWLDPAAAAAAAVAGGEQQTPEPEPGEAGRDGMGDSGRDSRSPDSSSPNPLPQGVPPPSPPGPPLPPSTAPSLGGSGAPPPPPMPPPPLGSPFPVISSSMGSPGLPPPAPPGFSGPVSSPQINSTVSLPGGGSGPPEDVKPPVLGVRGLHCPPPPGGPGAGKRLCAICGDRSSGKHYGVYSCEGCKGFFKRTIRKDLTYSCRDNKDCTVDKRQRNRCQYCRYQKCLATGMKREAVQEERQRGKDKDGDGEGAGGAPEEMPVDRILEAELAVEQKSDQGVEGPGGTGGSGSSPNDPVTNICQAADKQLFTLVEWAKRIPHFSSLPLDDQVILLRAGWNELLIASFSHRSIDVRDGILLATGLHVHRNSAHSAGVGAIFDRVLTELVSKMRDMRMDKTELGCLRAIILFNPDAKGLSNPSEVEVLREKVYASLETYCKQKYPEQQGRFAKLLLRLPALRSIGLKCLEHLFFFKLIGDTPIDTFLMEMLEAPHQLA"}, "source": "patent US6936636B2", "about": "“5-[phenyl-tetrahydronaphthalene-2-yl dihydronaphthalen-2-yl and heteroaryl-cyclopropyl]-pentadienoic acid derivatives having serum glucose reducing activity” (Allergan, Inc., priority 2003, dated 2005)", "key": {"[1]": {"molecular_target": "T1, RXRα (Homo sapiens, UniProt P19793)", "assay": "RXR ligand binding assay", "conditions": "read-out: Binding Ki RXRα", "text": "(§1) A holoreceptor transactivation assay and a ligand binding assay which measure the antagonist/agonist like activity of the compounds of the invention, or their ability to bind to the several retinoid receptor subtypes, respectively, are described in published PCT Application No. WO WO93/11755 (particularly on pages 30-33 and 37-41) published on Jun. 24, 1993, the specification of which is also incorporated herein by reference. A detailed experimental procedure for holoreceptor transactivations has been described by Heyman et al. Cell 68, 397-406, (1992); Allegretto et al. J. Biol. Chem. 268, 26625-26633, and Mangelsdorf et al. The Retinoids: Biology, Chemistry and Medicine, pp 319-349, Raven Press Ltd., New York, which are expressly incorporated herein by reference. The results obtained in this assay are expressed in EC50 numbers, as they are also in the, chimeric receptor transactivation assay. The results of the ligand binding assay are expressed in Ki numbers. […]\n(§2) In Tables 1 and 2 the binding Ki numbers are indicated in the first 3 columns. In the second set of three columns the numbers in parentheses indicate efficacy as a percentage compared to the standard compound, (2E, 4E, 1′S, 2′S)-3-methyl-5-[2′-methyl-2′-(5,5,8,8-tetramethyl-5,6,7,8-tetrahydro-naphthalen-2-yl)-cyclopropyl]-penta-2,4-dienoic acid and the other numbers indicate the measured EC50 in nanomolar concentration."}, "[2]": {"molecular_target": "T2, RXRβ (Homo sapiens, UniProt P28702)", "assay": "RXR ligand binding assay", "conditions": "read-out: Binding Ki RXRβ", "text": "as §1, §2"}, "[3]": {"molecular_target": "T1, RXRα", "assay": "holoreceptor transactivation assay", "conditions": "read-out: Transactivation EC50 RXRα", "text": "(§3) A holoreceptor transactivation assay and a ligand binding assay which measure the antagonist/agonist like activity of the compounds of the invention, or their ability to bind to the several retinoid receptor subtypes, respectively, are described in published PCT Application No. WO WO93/11755 (particularly on pages 30-33 and 37-41) published on Jun. 24, 1993, the specification of which is also incorporated herein by reference. A detailed experimental procedure for holoreceptor transactivations has been described by Heyman et al. Cell 68, 397-406, (1992); Allegretto et al. J. Biol. Chem. 268, 26625-26633, and Mangelsdorf et al. The Retinoids: Biology, Chemistry and Medicine, pp 319-349, Raven Press Ltd., New York, which are expressly incorporated herein by reference. The results obtained in this assay are expressed in EC50 numbers, as they are also in the, chimeric receptor transactivation assay. The results of the ligand binding assay are expressed in Ki numbers. (See Cheng et al. Biochemical Pharmacology Vol. 22 pp 3099-3108, expressly incorporated herein by reference.)\n(§4) Efficacy in a transactivation assay is expressed as a percentage of the maximum potency attained by the compound compared to a standard which, in this, case, is the compound named (2E, 4E, 1′S, 2′S)-3-methyl-5-[2′-methyl-2′-(5,5,8,8-tetramethyl-5,6,7,8-tetrahydro-naphthalen-2-yl)-cyclopropyl]-penta-2,4-dienoic acid. This standard compound is described in U.S. Pat. No. 6,114,533.\n(§5) Table 1 discloses the activity of certain exemplary tetrahydronaphthale compounds of the invention in the above-described RXR receptor transactivation and binding assays. […]\nas §2"}, "[4]": {"molecular_target": "RXRγ (Homo sapiens, UniProt P48443)", "assay": "holoreceptor transactivation assay", "conditions": "read-out: Transactivation EC50 RXRγ", "text": "as §3, §4, §5, §2"}, "[5]": {"molecular_target": "T2, RXRβ", "assay": "holoreceptor transactivation assay", "conditions": "read-out: Transactivation EC50 RXRβ", "text": "as §3, §4, §5, §2"}}, "note": "The match of structure and compound is tentative."}
{"smiles": "CCOC[C@H]1[C@@H](/C=C/C(C)=C/C(=O)O)[C@@]1(C)c1cc(C(C)C)cc(C(C)C)c1", "values": [{"measurement": "Ki", "setting": "[1]", "result": 0.024, "unit": "µM"}, {"measurement": "Ki", "setting": "[2]", "result": 0.096, "unit": "µM"}, {"measurement": "EC50", "setting": "[3]", "result": 0.048, "unit": "µM"}, {"measurement": "EC50", "setting": "[4]", "result": 4.48, "unit": "µM"}, {"measurement": "EC50", "setting": "[5]", "result": "> 3", "unit": "µM"}]}
